Data from US20230044602A1, “CANCER SIGNATURES, METHODS OF GENERATING CANCER SIGNATURES, AND USES THEREOF” (EDWARD VIA COLLEGE OF OSTEOPATHIC MEDICINE, priority 2019, published 2023).
At least one structure is not confirmed: it was looked up by name or label, or the drawing left a doubt.

Assays:
GBM patients [1] = conditions: Ref. 11; cited from earlier work
GBM patients [2] = experiment: Disease-free survival of PGS-stratified TCGA GBM patients treated with or without TMZ; type: in vivo, human; conditions: FIG. 4A
Method: Clinical data on adjuvant chemotherapy (ACT) or TMZ administration for the TOGA training cohorts were retrieved from the NCI GDC data portal, and the Buffa hypoxia scores for each patient were retrieved from TOGA PanCancer Atlas through cBioPortal (Ref. 54). Differences in patient benefit from treatment across risk groups were assessed using one-tailed two-sample t-tests on unequal variances and Fisher's Exact Tests. Two-tailed two-sample t-tests on unequal variances assessed the correlation of PGS risk stratification with tumor hypoxia in NSCLC.

NSCLC = conditions: Ref. 86, Hu et al.; cited from earlier work

| Structure (SMILES) | GBM patients who develop resistance (GBM patients [1]) | DFS times, treated vs. treated without (GBM patients [2]; high-risk progression patients, P>0.05) | DFS times, treated vs. treated without (GBM patients [2]; low-risk progression patients, P<0.05) | effect on cisplatin sensitivity in NSCLC (NSCLC) |
| --- | --- | --- | --- | --- |
| Cn1nnc2c(C(N)=O)ncn2c1=O [TMZ, Temozolomide] | around 50% | did not significantly differ | significantly higher | – |
| N#CC[C@H](C1CCCC1)n1cc(-c2ncnc3[nH]ccc23)cn1 [ruxolitinib] | – | – | – | restored cisplatin sensitivity |
